Molecules are shown by their SMILES. “And” between values parts separate entries of the source, which are not always exact repeats. Equal values may be shown once. This is one part of the list. These are further read-outs of the screen, such as a control signal, another cell line or another target. No call is given for them. Most of these compounds were active or inconclusive in the main read-out, so they are no random draw. Words in brackets tell the shape of the fitted curve; partial curves, single points and poor fits give uncertain potencies.

The assay in a line: qHTS Assay to Find Inhibitors of Chronic Active B-Cell Receptor Signaling. The note with it: ABC-DLBCL IkBa-CBG/CBR reporter, luminescence ratio (green luciferase fused to IkBa over red control in TMD8 lymphoma cells), 4 h. The procedure, abridged: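 TMD8 human ABC-DLBCL cells with doxycycline-inducible IκBα–green luciferase fusion and unfused red luciferase, in 0.5% FBS medium; compounds up to 46 uM, 4 h at 37C. Green/red luminescence ratio, filter-overlap corrected, fitted to concentration-response curves.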

[1] abbreviates: measured here: CBR red luminescence, cell number.
Where [2] appears, read: measured here: IkBa-CBG green luminescence.

As usually defined, the AC50 is the concentration at which the activity in the assay is half-maximal. As for `CCCc1cc(=O)n2[nH]c(-c3ccco3)nc2n1`, the concentration at half-maximal activity (AC50) under setting [1] is 23.1 µM [falling, single point].

In the case of `C/C(N)=C(/C#N)C(=O)COC(=O)CNS(=O)(=O)c1c(F)cccc1F`, under setting [1], the AC50 was 11.2 µM [rising, partial curve]. For the molecule `CC[C@]1(O)CC2CN(CCc3c([nH]c4ccccc34)[C@@](C(=O)OC)(c3cc4c(cc3OC)N(C=O)[C@H]3[C@@](O)(C(=O)OC)[C@H](OC(C)=O)[C@]5(CC)C=CCN6CC[C@]43[C@@H]65)C2)C1` (some centres undefined), the AC50 under setting [1] is 1.58 µM [rising, full curve] and the AC50 under setting [2] is 1.41 µM [falling, full curve]. On to `OCCN1CCN(CC(O)COc2ccc3c(c2)OCO3)CC1` (centres undefined), for which the half-maximal activity concentration (AC50) under setting [1] was 11.2 µM [rising, partial curve, poor fit]. Still for that read-out and setting: to `COCCN(C(=O)C1CCN(C(=O)c2ccccc2C)CC1)c1c(N)n(CC(C)C)c(=O)[nH]c1=O` belongs 29.1 µM [rising, single point].

`COc1cccc2c1OCC/C2=N\NC(=O)C(C)Oc1ccc([N+](=O)[O-])cc1` (centres undefined): the concentration at half-maximal activity (AC50) under setting [2] was 14.1 µM [rising, partial curve, poor fit]. Regarding `O=C(CSc1nnc2ccccn12)c1ccc(Cl)cc1`, the AC50 under setting [1] was 35.5 µM [falling, single point]. Regarding `Cc1occc1-c1nnc(SCC(=O)Nc2nc3ccccc3s2)o1`, the half-maximal activity concentration (AC50) under setting [1] was 0.731 µM [rising, full curve]. On the same count and under the same terms, next, `Cc1cc(NC(=O)c2ccc(F)cc2)n(-c2ccccn2)n1`: 35.5 µM [falling, single point]. `Cc1cccc(NC(=O)CN2C(=O)S/C(=C\c3ccc(O)c([N+](=O)[O-])c3)C2=O)c1`: the concentration at half-maximal activity (AC50) under setting [1] was 35.5 µM [falling, single point]. On the same count and under the same terms, to `COc1ccc(Nc2nc(=O)c3cc([N+](=O)[O-])ccc3s2)cc1` belongs 35.5 µM [falling, single point]; to `Cc1ccc(C(=O)NC(=S)NNC(=O)COc2ccccc2C)cc1`, 12.6 µM [rising, partial curve, poor fit]. Regarding `Cc1cccc(NC2=C(NCCO)C(=O)c3ccccc3C2=O)c1`, the AC50 under setting [1] is 0.206 µM [rising, partial curve, poor fit].

Regarding `CCOC(=O)C1C(C(=O)OC)=C(c2ccc(OC)cc2)c2ccccc2N1S(=O)(=O)C(F)(F)F` (centres undefined), the AC50 is 6.51 µM [rising, single point] under setting [1] and 1.84 µM [falling, partial curve] under setting [2]. `CC12CN3CCN(CC(C3)/C1=N\NC(=O)c1ccccc1N)C2`: the concentration at half-maximal activity (AC50) under setting [1] is 7.08 µM [falling, partial curve].

Regarding `O=C(/C=C/c1ccc(O)c(O)c1)NC(=O)c1ccccc1O`, the half-maximal activity concentration (AC50) under setting [1] is 3.55 µM [falling, full curve]. Still for that read-out and setting: next, `CCNc1nc(N)nc(Oc2ccc(OCCOc3ccc(Cl)cc3Cl)nn2)n1`: 1.84 µM [rising, single point]. Same read-out and setting: next, `O=C(CSc1nnc(-c2ccncc2)n1Cc1ccccc1)Nc1nccs1`: 7.94 µM [falling, partial curve, poor fit]; `CC(C)(C)OC(=O)NCCCCCNC(=O)c1nc[nH]c1C(=O)NCC(=O)OCc1ccccc1`: 14.6 µM [falling, single point]; `C#CCOCCOCCOCCNc1nc(N2CCN(C(=O)CCCCCCCCCCNC(=O)[C@H]([C@@H](C)CC)n3cc(CCCCN=C(N)N)nn3)CC2)nc(N2CCN(C(=O)CCCCCCCCCCNC(=O)[C@H]([C@@H](C)CC)n3cc(CCCCN=C(N)N)nn3)CC2)n1`: 11.6 µM [rising, partial curve, poor fit]. The same measure, in the same setting: next, `COc1cc(/C=C/C(=O)O)ccc1OS(=O)(=O)c1c(C)c(C)cc(C)c1C`: 32.6 µM [rising, single point]. `O=C(NCc1ccc(Cl)cc1)c1cc([N+](=O)[O-])ccc1Cl`: under setting [1], the AC50 is 35.5 µM [rising, single point].

As for `O=C(COc1cccnc1[N+](=O)[O-])Nc1ccc(F)cc1`, under setting [1], the concentration at half-maximal activity (AC50) was 20.6 µM [falling, partial curve, poor fit]. Same read-out and setting: next, `COCc1nc2ccccc2n1Cc1c(F)cccc1Cl`: 1.26 µM [rising, full curve, poor fit]; `Cc1ccc(S(=O)(=O)NCCCNS(=O)(=O)c2ccc(C)cc2)cc1`: 29.1 µM [rising, partial curve, poor fit].

Consider `O=C(O)CCN1C(=O)C(=C2CCCCCC2)SC1=S`, for which, under setting [1], the concentration at half-maximal activity (AC50) was 11.2 µM [falling, partial curve]. `COC(=O)[C@H](CCSC)NC(=O)Cn1ccc(NC(=O)OCc2ccccc2)nc1=O`: under setting [1], the AC50 is 11.6 µM [rising, single point]. Still for that read-out and setting: to `O=C1OC[C@H]2CCCN2C(=O)[C@@H](CC(=O)N(CCO)Cc2ccccc2)C/C=C\C[C@@H]1Cc1ccc(F)cc1` belongs 0.103 µM [rising, full curve, poor fit]; to `Cc1coc2cc3oc(=O)c(CCC(=O)O)c(C)c3cc12`, 11.2 µM [falling, partial curve, poor fit]. Same read-out and setting: next, `O=[N+]([O-])c1cccc(-n2nnnc2CNCc2ccccc2)c1`: 0.112 µM [rising, full curve, poor fit]. Same read-out and setting: to `Cc1cc(=O)[nH]c(SCCc2ccccc2)n1` belongs 11.2 µM [falling, single point]; to `N#Cc1ccc(COC(=O)c2cnc(Cl)c(Cl)c2)cc1`, 3.55 µM [falling, single point]. `COc1ccccc1N(CC(=O)NC(C)(C)C)C(=O)Cn1nnc(-c2ccc(C)o2)n1`: the AC50 under setting [1] is 35.5 µM [falling, partial curve, poor fit]. Still for that read-out and setting: next, `COC(=O)C1=C(C)N(Cc2ccccc2)C(=NCc2cc(OC)c(OC)c(OC)c2)N[C@H]1CCc1ccccc1`: 22.4 µM [falling, partial curve] and 8.2 µM [falling, partial curve, poor fit]; `CCC(=O)n1nc(-c2ccccc2)nc1NCc1ccccc1`: 16.4 µM [falling, single point]; `Cc1ccc(C(=O)O/N=C(\N)c2ccc(C(F)(F)F)cn2)cc1`: 22.4 µM [rising, partial curve, poor fit]. On the same count and under the same terms, next, `Cc1cccc(C(=O)NC(=S)Nc2cccc3nc(C)ccc23)c1`: 35.5 µM [falling, single point]; `O=C(CN(CC1CCCO1)C(=O)c1nsc(Cl)c1Cl)NC1CCCC1` (centres undefined): 6.31 µM [rising, single point]. Still for that read-out and setting: next, `COc1ccc(C(=O)NC(=S)Nc2ccccc2N2CCCCC2)cc1[N+](=O)[O-]`: 1.3 µM [rising, full curve, poor fit].

For `COc1cc(Cn2c(-c3nonc3N)nc3ccccc32)ccc1C`, the AC50 under setting [1] is 0.291 µM [rising, full curve, poor fit]. Turning to `O=C(CNc1ccccc1)N/N=C/c1ccc([N+](=O)[O-])cc1`, the AC50 under setting [1] was 4.11 µM [rising, full curve, poor fit]. The same measure, in the same setting: to `O=C(COC(=O)c1c(Cl)cccc1Cl)Nc1ccccc1Br` belongs 1.16 µM [rising, partial curve].

Regarding `COc1ccc(-c2cc3ncccc3cn2)cc1`, the concentration at half-maximal activity (AC50) under setting [1] was 20.6 µM [falling, single point]. Consider `CC(C)(C)n1nc(C2CC2)cc1NC(=O)Nc1ccc(Cl)cc1`, for which the AC50 under setting [1] is 5.01 µM [rising, full curve, poor fit]. The same measure, in the same setting: to `Nc1ccccc1SCC(=O)Nc1nccs1` belongs 35.5 µM [falling, single point]. For `Cc1ccc(NC(=O)C2CCCO2)cc1[N+](=O)[O-]` (centres undefined), the concentration at half-maximal activity (AC50) under setting [1] is 20.6 µM [rising, single point] and the half-maximal activity concentration (AC50) under setting [2] is 16.4 µM [falling, single point]. As for `Cc1ccccc1C(=O)NC(=S)NCC(=O)c1ccccc1`, under setting [1], the AC50 is 2.82 µM [falling, full curve, poor fit]. Consider `Cc1nc(NC(C)c2ccccc2)c2oc3ccccc3c2n1` (centres undefined), for which, under setting [1], the AC50 is 8.91 µM [falling, partial curve, poor fit]. Same read-out and setting: next, `Cc1cccc(C(=O)N[C@H](C(=O)Nc2ccc3c(c2)OCO3)C(C)C)c1`: 0.116 µM [rising, full curve, poor fit]; `CCN(C(=O)COn1nnc2ccc(S(=O)(=O)N(C)C)cc21)C1CCS(=O)(=O)C1` (centres undefined): 0.731 µM [falling, partial curve]; `Cc1ccc(S(=O)(=O)/N=C2/NC(=O)/C(=C/c3ccccc3)S2)cc1`: 11.2 µM [rising, single point].

On to `N#C/C(=C(/O)CSc1nnc(Cc2cccs2)n1C1CCCCC1)c1nc2ccccc2[nH]1`, for which the AC50 was 8.91 µM [falling, partial curve] under setting [1] and 1.26 µM [rising, full curve, poor fit] under setting [2].

On to `CCOC(=O)C1=CN(Cc2cccc(F)c2)S(=O)(=O)N(C)C1c1ccc2ccccc2c1` (centres undefined), for which the AC50 under setting [1] is 20.6 µM [rising, single point].

For `CCn1c(SCC(O)c2ccccc2)nnc1-c1ccccc1` (centres undefined), the AC50 under setting [1] is 14.6 µM [falling, partial curve, poor fit].

Turning to `CCNc1nc(SCC(=O)Nc2ccc(Cl)c(Cl)c2)nc(N2CCOCC2)n1`, the AC50 by setting is: under setting [1], 31.6 µM [falling, single point]; under setting [2], 35.5 µM [rising, partial curve, poor fit]. In the case of `COC(=O)Nc1nc2ccc(Br)cc2s1`, under setting [1], the AC50 is 1 µM [rising, full curve, poor fit]. In the case of `Cc1nc2ccc(NC(=O)Cc3ccc(Br)cc3)cc2s1`, the half-maximal activity concentration (AC50) under setting [1] is 5.62 µM [falling, full curve, poor fit]. Still for that read-out and setting: to `Cc1c(Cl)cccc1NC(=O)CCN1CCCCCC1` belongs 6.51 µM [rising, single point].

Consider `Cc1cnc(NC(=O)CSC(=S)N2CCOCC2)s1`, for which the AC50 under setting [1] was 0.282 µM [falling, full curve, poor fit].

The record behind these values is PubChem BioAssay AID493014 (National Center for Advancing Translational Sciences (NCATS), 2011).
